# At least one structure is not confirmed: it was looked up by name or label, or the drawing left a doubt.
# System: 15 colorectal cancer cell lines
# Details: all but two cell lines (SW837, OHMS-23) of 15
smiles,measurement,value
"CN(C)C(=O)c1cc2cnc(Nc3ccc(N4CCNCC4)cn3)nc2n1C1CCCC1 [LEE011, 7-Cyclopentyl-2-(5-piperazin-1-yl-pyridin-2-ylamino)-7H-pyrrolo[2,3-d]pyrimidine-6-carboxylic acid dimethylamide]","IC50 values, growth inhibition as single agent",sub-micromolar to micromolar

# Reference: patent publication US20180243304A1, “PHARMACEUTICAL COMBINATIONS COMPRISING (A) THE CYCLIN DEPENDENT KINASE 4/6 (CDK4/6) INHIBITOR LEE011 (=RIBOCICLIB), AND (B) THE EPIDERMAL GROWTH FACTOR RECEPTOR (EGFR) INHIBITOR ERLOTINIB, FOR THE TREATMENT OR PREVENTION OF CANCER” (Novartis AG, priority 2015, published 2018)
